Assay results: US20160130579A1
Results are given in words; binding and its absence hold for the method and conditions named. Some results given as binding are weak or reduced against the parent protein; the word gives no strength.

Tests used:
[1] = biological target: T1, prohibitin (UniProt P67778); assay: immunoprecipitation
T1 sequence (looked up): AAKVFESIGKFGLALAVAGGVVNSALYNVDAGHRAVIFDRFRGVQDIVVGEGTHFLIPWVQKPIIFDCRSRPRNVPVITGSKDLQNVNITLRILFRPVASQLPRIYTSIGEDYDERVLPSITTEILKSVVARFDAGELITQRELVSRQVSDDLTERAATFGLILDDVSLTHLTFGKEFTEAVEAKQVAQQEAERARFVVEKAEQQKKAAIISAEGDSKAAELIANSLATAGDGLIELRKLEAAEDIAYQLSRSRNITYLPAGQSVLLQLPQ

[2] = biological target: T1, prohibitin; assay: competition assay on 3T3-L1 preadipocytes and mature adipocytes, confocal microscopy
[3] = biological target: T1, prohibitin; assay: staining of 3T3-L1 preadipocytes and mature adipocytes with RhoB-ATS

Binder | binding [1] | binding [2] | binding [3]
CKGGRAKDC [adipocyte-targeting sequence (ATS) peptide, free] | binds | binds | –
CKGGRAKDC (Rhodamine B conjugated (position not given)) [Rhodamine B conjugated ATS peptide] | – | – | binds
